From the supplement of paper PMC8728848
The other results are listed elsewhere or left out.

How the values were obtained:
Assay in all cases: glycan array binding signal (z-score within array); higher = stronger binding
Conditions in all cases: glycan notation: IUPAC condensed, linker removed
Glc(b1-6)Glc = target: Glc(b1-6)Glc
In short: (§1)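 The binding signal is a Z-score computed within each array. Data were drawn from 3228 arrays in the Consortium for Functional Glycomics database, restricted to those with a known protein sequence. Scores were averaged over arrays of the same protein sequence at different concentrations or buffers, and over linkers, and negative values can be taken as non-binding.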

GlcA(b1-3)Gal = target: GlcA(b1-3)Gal
In short: as §1

GlcA(b1-3)GlcNAc = target: GlcA(b1-3)GlcNAc
In short: as §1

GlcA(b1-6)Gal = target: GlcA(b1-6)Gal
In short: as §1

[1] = target: GlcA3S(b1-3)Gal(b1-4)GlcNAc(b1-2)Man
In short: as §1

[2] = target: GlcA3S(b1-3)Gal(b1-4)GlcNAc(b1-3)Gal(b1-4)Glc
In short: as §1

[3] = target: GlcNAc(a1-3)Gal(b1-4)GlcNAc
In short: as §1

[4] = target: GlcNAc(a1-4)Gal(b1-3)GlcNAc
In short: as §1

[5] = target: GlcNAc(a1-4)Gal(b1-4)GalNAc
In short: as §1

[6] = target: GlcNAc(a1-4)Gal(b1-4)GlcNAc
In short: as §1

[7] = target: GlcNAc(a1-4)Gal(b1-4)GlcNAc(b1-3)Gal(b1-4)Glc
In short: as §1

[8] = target: GlcNAc(a1-4)Gal(b1-4)GlcNAc(b1-3)Gal(b1-4)GlcNAc
In short: as §1

[9] = target: GlcNAc(a1-4)Gal(b1-4)GlcNAc(b1-3)Gal(b1-4)GlcNAc(b1-3)Gal(b1-4)GlcNAc
In short: as §1

[10] = target: GlcNAc(a1-4)Gal(b1-4)GlcNAc(b1-3)Gal(b1-4)[Fuc(a1-3)]GlcNAc(b1-3)Gal(b1-4)[Fuc(a1-3)]GlcNAc
In short: as §1

[11] = target: GlcNAc(a1-6)Gal(b1-4)GlcNAc
In short: as §1

[12] = target: GlcNAc(b1-2)Gal(b1-3)GalNAc
In short: as §1

[13] = target: GlcNAc(b1-2)Man(a1-3)[GlcNAc(b1-2)Man(a1-6)]Man(b1-4)GlcNAc(b1-4)GlcNAc
In short: as §1

[14] = target: GlcNAc(b1-2)Man(a1-3)[GlcNAc(b1-2)Man(a1-6)]Man(b1-4)GlcNAc(b1-4)[Fuc(a1-6)]GlcNAc
In short: as §1

[15] = target: GlcNAc(b1-2)Man(a1-3)[GlcNAc(b1-4)][GlcNAc(b1-2)Man(a1-6)]Man(b1-4)GlcNAc(b1-4)GlcNAc
In short: as §1

[16] = target: GlcNAc(b1-2)Man(a1-3)[GlcNAc(b1-4)][GlcNAc(b1-2)Man(a1-6)]Man(b1-4)GlcNAc(b1-4)[Fuc(a1-6)]GlcNAc
In short: as §1

[17] = target: GlcNAc(b1-2)[GlcNAc(b1-4)]Man(a1-3)[GlcNAc(b1-2)Man(a1-6)]Man(b1-4)GlcNAc(b1-4)GlcNAc
In short: as §1

[18] = target: GlcNAc(b1-2)[GlcNAc(b1-4)]Man(a1-3)[GlcNAc(b1-4)][GlcNAc(b1-2)Man(a1-6)]Man(b1-4)GlcNAc(b1-4)GlcNAc
In short: as §1

[19] = target: GlcNAc(b1-2)[GlcNAc(b1-4)]Man(a1-3)[GlcNAc(b1-4)][GlcNAc(b1-2)[GlcNAc(b1-6)]Man(a1-6)]Man(b1-4)GlcNAc(b1-4)GlcNAc
In short: as §1

[20] = target: GlcNAc(b1-2)[GlcNAc(b1-4)]Man(a1-3)[GlcNAc(b1-4)][GlcNAc(b1-2)[GlcNAc(b1-6)]Man(a1-6)]Man(b1-4)GlcNAc(b1-4)[Fuc(a1-6)]GlcNAc
In short: as §1

[21] = target: GlcNAc(b1-2)[GlcNAc(b1-6)]Man(a1-6)[GlcNAc(b1-2)Man(a1-3)]Man(b1-4)GlcNAc(b1-4)GlcNAc
In short: as §1

[22] = target: GlcNAc(b1-2)[GlcNAc(b1-6)]Man(a1-6)[GlcNAc(b1-2)Man(a1-3)]Man(b1-4)GlcNAc(b1-4)[Fuc(a1-6)]GlcNAc
In short: as §1

[23] = target: GlcNAc(b1-2)[GlcNAc(b1-6)]Man(a1-6)[GlcNAc(b1-4)][GlcNAc(b1-2)Man(a1-3)]Man(b1-4)GlcNAc(b1-4)GlcNAc
In short: as §1

GlcNAc(b1-3)Fuc = target: GlcNAc(b1-3)Fuc
In short: as §1

GlcNAc(b1-3)Gal = target: GlcNAc(b1-3)Gal
In short: as §1

[24] = target: GlcNAc(b1-3)Gal(b1-3)GalNAc
In short: as §1

GlcNAc(b1-3)Gal(b1-4)Glc = target: GlcNAc(b1-3)Gal(b1-4)Glc
In short: as §1

[25] = target: GlcNAc(b1-3)Gal(b1-4)GlcNAc
In short: as §1

[26] = target: GlcNAc(b1-3)Gal(b1-4)GlcNAc(b1-2)Man(a1-3)[GlcNAc(b1-3)Gal(b1-4)GlcNAc(b1-2)Man(a1-6)]Man(b1-4)GlcNAc(b1-4)GlcNAc
In short: as §1

[27] = target: GlcNAc(b1-3)Gal(b1-4)GlcNAc(b1-2)Man(a1-3)[GlcNAc(b1-3)Gal(b1-4)GlcNAc(b1-2)Man(a1-6)]Man(b1-4)GlcNAc(b1-4)[Fuc(a1-6)]GlcNAc
In short: as §1

[28] = target: GlcNAc(b1-3)Gal(b1-4)GlcNAc(b1-2)[GlcNAc(b1-3)Gal(b1-4)GlcNAc(b1-6)]Man(a1-6)[GlcNAc(b1-3)Gal(b1-4)GlcNAc(b1-2)Man(a1-3)]Man(b1-4)GlcNAc(b1-4)GlcNAc
In short: as §1

[29] = target: GlcNAc(b1-3)Gal(b1-4)GlcNAc(b1-3)Gal(b1-4)GlcNAc
In short: as §1

[30] = target: GlcNAc(b1-3)Gal(b1-4)GlcNAc(b1-3)Gal(b1-4)GlcNAc(b1-2)Man(a1-3)[GlcNAc(b1-3)Gal(b1-4)GlcNAc(b1-3)Gal(b1-4)GlcNAc(b1-2)Man(a1-6)]Man(b1-4)GlcNAc(b1-4)GlcNAc
In short: as §1

B1: Protein L(B1-B4) (Finegoldia magna), Q51912 (protein)
chain: KEETPETPETDSEEEVTIKANLIFANGSTQTAEFKGTFEKATSEAYAYADTLKKDNGEYTVDVADKGYTLNIKFAGKEKTPEEPKEEVTIKANLIYADGKTQTAEFKGTFEEATAEAYRYADALKKDNGEYTVDVADKGYTLNIKFAGKEKTPEEPKEEVTIKANLIYADGKTQTAEFKGTFEEATAEAYRYADLLAKENGKYTVDVADKGYTLNIKFAGKEKTPEEPKEEVTIKANLIYADGKTQTAEFKGTFAEATAEAYRYADLLAKENGKYTADLEDGGYTINIRFAG
- glycan array binding signal (z-score) (Glc(b1-6)Glc): 0.408
- glycan array binding signal (z-score) (GlcA(b1-3)Gal): -0.17
- glycan array binding signal (z-score) (GlcA(b1-3)GlcNAc): -0.785
- glycan array binding signal (z-score) (GlcA(b1-6)Gal): 2.19
- glycan array binding signal (z-score) [1]: -0.346
- glycan array binding signal (z-score) [2]: -0.921
- glycan array binding signal (z-score) [3]: -0.811
- glycan array binding signal (z-score) [4]: 0.152
- glycan array binding signal (z-score) [5]: 1.64
- glycan array binding signal (z-score) [6]: -0.397
- glycan array binding signal (z-score) [7]: -0.962
- glycan array binding signal (z-score) [8]: -0.246
- glycan array binding signal (z-score) [9]: -0.604
- glycan array binding signal (z-score) [10]: 2.65
- glycan array binding signal (z-score) [11]: -0.584
- glycan array binding signal (z-score) [12]: -1.11
- glycan array binding signal (z-score) [13]: -0.131
- glycan array binding signal (z-score) [14]: 1.7
- glycan array binding signal (z-score) [15]: -0.819
- glycan array binding signal (z-score) [16]: -1.02
- glycan array binding signal (z-score) [17]: 0.094
- glycan array binding signal (z-score) [18]: -0.981
- glycan array binding signal (z-score) [19]: -0.599
- glycan array binding signal (z-score) [20]: -0.418
- glycan array binding signal (z-score) [21]: -0.522
- glycan array binding signal (z-score) [22]: 0.726
- glycan array binding signal (z-score) [23]: -0.709
- glycan array binding signal (z-score) (GlcNAc(b1-3)Fuc): -1.02
- glycan array binding signal (z-score) (GlcNAc(b1-3)Gal): -0.392
- glycan array binding signal (z-score) [24]: 0.17
- glycan array binding signal (z-score) (GlcNAc(b1-3)Gal(b1-4)Glc): -0.917
- glycan array binding signal (z-score) [25]: -0.794
- glycan array binding signal (z-score) [26]: 1.03
- glycan array binding signal (z-score) [27]: 1.23
- glycan array binding signal (z-score) [28]: 0.951
- glycan array binding signal (z-score) [29]: -0.441
- glycan array binding signal (z-score) [30]: 1.42
